1 molecule from patent US20230167185A1 can be followed below.

By UniProt entry, the sequences of proteins in these tests, tags left out. Where a name states a change or a piece, a line headed by the entry shows the natural chain unless it says otherwise.
UniProt P25942: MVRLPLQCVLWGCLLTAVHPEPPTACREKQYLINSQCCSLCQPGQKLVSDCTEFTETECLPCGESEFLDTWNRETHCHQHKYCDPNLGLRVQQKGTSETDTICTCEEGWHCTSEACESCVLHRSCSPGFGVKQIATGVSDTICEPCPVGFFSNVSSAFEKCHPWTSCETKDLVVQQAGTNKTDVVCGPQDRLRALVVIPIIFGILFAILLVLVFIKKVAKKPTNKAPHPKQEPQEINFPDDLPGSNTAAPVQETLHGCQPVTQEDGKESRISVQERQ

Results are given in words; binding and its absence hold for the method and conditions named. Some results given as binding are weak or reduced against the parent protein; the word gives no strength.

Experiment [1] deals with Cynomolgus CD40 Fc chimera (R&D Systems #9660-CD) (cynomolgus) (UniProt G7PG38). In words: SPR, captured IgG2. For orientation: In SPR one partner is held on a chip, and binding of the other changes the refractive index at the surface.
The target of experiment [2] is hCD40-Fc (Sino Biological #10774-H38H) (human) (UniProt P25942). In words: SPR, captured IgG2, hCD40-Fc (Sino) 0.16-100 nM, SCK.

B1: Y-SM083-A9 (antibody, human IgG2, kappa, V domains shown)
VH: EVQLLESGGGLVQPGGSLRLSCAASGFTFSSYAMSWVRQAPGKGLEWVSGISGYSGSTYYADSVKGRFTISRDNSKNTLYLQMNSLRAEDTAVYYCARYYSYYGYYYFDYWGQGTLVTVSS
VL: DIQMTQSPSSLSASVGDRVTITCRASQSISSYLNWYQQKPGKAPKLLIYAASSLQSGVPSRFSGSGSGTDFTLTISSLQPEDFATYYCQQGYPYPFTFGQGTKLEIKR
Regarding B1, the binding result in experiment [1] and in experiment [2] was “binds” in each case.
